# From PubChem BioAssay AID2685 (National Center for Advancing Translational Sciences (NCATS), 2010)
# Screen size: about 320,000 compounds; about 2,100 (0.66%) were called active. This list was built around the results that the source calls inconclusive (neither active nor inactive); the mix of calls is not that of the screen. Calls follow the shape of the dose curve; as a rule, active = well fitted inhibition curve with a large enough effect in the signal ratio, with a control signal flat (not every such curve was filed as active); inconclusive = small, poorly fitted or top-dose-only effect, or effect the other way, or a change in a side signal; inactive = flat fitted curve, though single readings scatter; the % refers to the signal ratio. Potencies of inconclusive entries are doubtful fits and often do not repeat.
# Experiment: qHTS Assay for Lipid Storage Modulators in Drosophila S3 Cells
# Conditions: BODIPY lipid droplet fluorescence, 18-24 h, cells fed with added oleic acid; lipid storage change, negative = inhibition: at 46.1 µM (top of the series) unless noted
# Procedure, shortened: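 Laser-scanning cytometry quantifies lipid droplet accumulation (500–530 nm total intensity; droplet/cell object ratio) in oleic acid-fed (400 uM added) Drosophila S3 cells treated with a concentration series. 20 uM Triacsin C defined 100% inhibition.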
# % is scaled to controls: 0 for no effect and ±100 for the full control effect; potency is read from the fitted curve at half-maximal effect.
Structure (SMILES),"lipid storage change, negative = inhibition",Potency
O=C(C1CCC(CNc2c(N3CCCCC3)c(=O)c2=O)CC1)N1CCCCC1 (stereo not drawn),inconclusive: -24.5%,–
Cc1[nH]c(C)c(C(=O)O)c1CNC1CCCCC1C (stereo not drawn),inconclusive: -4.63%,–
Cc1oc(C(=O)O)cc1COc1ccc2c(C)cc(=O)oc2c1,–,"inconclusive: 6.51 µM [falling, single point]"
CC(=O)Nc1ccc(S(=O)(=O)Nc2ccccc2N2CCOCC2)cc1,inconclusive: 6.57%,–
COc1ccc(-c2nc(-c3ccccc3)ncc2S(C)(=O)=O)cc1,inconclusive: -56.7%,–
Cc1nnc(-c2cnn(C)c2N)n1Cc1ccc2c(c1)OCO2,inconclusive: 12%,–
Cc1nc2sccn2c(=O)c1S(=O)(=O)N1CCN(c2ccccc2)CC1,inconclusive: 12.9%,–
CC(=O)Nc1ccc2nc(SCC(=O)O)sc2c1,inconclusive: -67.4%,–
CCOC(=O)n1c(=O)oc2cc(S(=O)(=O)N3CCOCC3)ccc21,inconclusive: -42.7%,–
COC(=O)CSc1nnc(Cc2cc(=O)[nH]c(=O)[nH]2)n1-c1cccc(OC)c1,inconclusive: -0.0097%,–
COc1ccc(NC(=O)COc2ccc(N(C)S(=O)(=O)c3ccc(Cl)cc3)cc2)cc1OC,inconclusive,–
O=S(=O)([N-]c1nc2ccccc2nc1-n1cc[n+](Cc2ccccc2)c1)c1ccc(Br)cc1,inconclusive: 12.6%,–
O=C(O)CSc1cc(C(=O)c2ccccc2O)cn2c(=O)c3c(-c4ccccc4)csc3nc12,inconclusive: -4.81%,–
COc1ccc(OC)c(-c2csc(NC(=O)c3ccc4c(c3)OCO4)n2)c1,inconclusive: -4.34%,–
O=C(COc1ccccc1F)Nc1ccc(N2CCOCC2)cc1N1CCOCC1,inconclusive,–
N#Cc1ccc(/C=C2\CCn3c2nc2cc(C(=O)O)ccc2c3=O)cc1,–,"inconclusive: 18.4 µM [falling, single point]"
CCc1nn2c(=O)cc(N3CCN(c4cc(C)nc5ccccc45)CC3)nc2s1,inconclusive: -4.81%,–
CCc1ccccc1Nc1ncnc2ccccc12,inconclusive: -54%,–
O=C(NCc1ccco1)c1ccc(Cl)c(S(=O)(=O)N2CCCC2)c1,inconclusive: 3.55%,–
CC1Cc2ccccc2N1C(=S)NC1CCCC1 (stereo not drawn),inconclusive: 65.5%,–
NC(=O)COC(=O)CC12CC3CC(CC(Br)(C3)C1)C2,inconclusive: 8.22%,–
Cc1cc(NC(=O)CSc2nc(=O)n(CCCN(C)C)c3c2CCCC3)no1,inconclusive: 8.74%,–
Cc1cnc(CNC(=O)CC2C(=O)NCCN2Cc2ccccc2C(F)(F)F)cn1 (stereo not drawn),inconclusive: -9.22%,–
COC(=O)C1C(=O)N2CCCSC2=C(C#N)C1c1cccs1 (stereo not drawn),–,"inconclusive: 8.2 µM [activator, partial curve]"

# Complete entries, looked up by structure. Values in the order: lipid storage change, negative = inhibition	Potency
# COC(=O)C1C(=O)N2CCCSC2=C(C#N)C1c1cccs1 (stereo not drawn) in the list: –	inconclusive: 8.2 µM [activator, partial curve]
# CC(=O)Nc1ccc2nc(SCC(=O)O)sc2c1 in the list: inconclusive: -67.4%	–
# Cc1oc(C(=O)O)cc1COc1ccc2c(C)cc(=O)oc2c1 in the list: –	inconclusive: 6.51 µM [falling, single point]

# The listing continues.

Structure (SMILES),"lipid storage change, negative = inhibition",Potency
O=C(Cc1ccc(Cl)cc1)N/N=C/c1ccncc1,–,"inconclusive: 29.1 µM [cytotoxic, single point]"
O=C(Nc1ccc(Br)cc1)c1cccn1-c1ncc(C(F)(F)F)cc1Cl,–,"inconclusive: 29.1 µM [falling, single point]"
COc1ccc(-c2nc(CN3CCC(C(=O)NC4CC4)CC3)c(C)o2)cc1OC,–,"inconclusive: 7.31 µM [activator, partial curve]"
COc1ccc(C(CC(=O)NCc2ccco2)c2ccc(F)cc2)cc1 (stereo not drawn),–,"inconclusive: 16.4 µM [activator, partial curve]"
COc1ccc(/C=N/Nc2ncnc3sc4c(c23)CCCC4)cc1O,–,"inconclusive: 11.6 µM [rising, partial curve, poor fit]"
O=C(COc1ccc(-n2cnnn2)cc1)NC1CCCCC1,inconclusive: -18.6%,–
Cc1ccccc1OCCCCN1CCCCC1,–,"inconclusive: 0.58 µM [falling, single point]"
CCOC(=O)c1c(C)[nH]c(C(=O)CSc2nnc(CC(C)c3ccccc3)o2)c1C (stereo not drawn),inconclusive: 8.2%,–
CC(C)c1ccccc1NC(=O)COC(=O)Cc1c[nH]c2ccccc12,inconclusive: -4.17%,–
CCC(C)c1ccccc1N1CC(C(=O)Nc2ccc(C)c(S(=O)(=O)N3CCOCC3)c2)CC1=O (stereo not drawn),inconclusive: 18.3%,–
CCCc1c(C)c2c(C)[nH]nc2oc1=O,–,"inconclusive: 11.6 µM [activator, partial curve, poor fit]"
C=CCc1cc(OC)ccc1OCCN1CC(C)OC(C)C1 (stereo not drawn),–,"inconclusive: 1.84 µM [activator, partial curve]"
O=C(Cc1nc2ccccc2[nH]1)c1cccc([N+](=O)[O-])c1,inconclusive: -26.8%,–
CC(C)CN(C(=O)CN1CCN(c2ccccc2O)CC1)c1c(N)n(CC(C)C)c(=O)[nH]c1=O,inconclusive: 4.12%,–
COc1ccccc1C(=O)NCCn1cc(SCC(=O)Nc2nnc(C)s2)c2ccccc21,–,"inconclusive: 0.206 µM [activator, full curve, poor fit]"
CCC(C)(C)n1nnnc1C(c1ccc(OC)c(OC)c1)N1CCN(C(=O)c2ccco2)CC1 (stereo not drawn),–,"inconclusive: 10.3 µM [activator, partial curve]"
CC1(c2ccccc2)NC(=O)N(CC(=O)NCC2CCCO2)C1=O (stereo not drawn),inconclusive: 26.6%,–
CCOC(=O)C1CCN(C(=O)c2sc3nc(-c4ccc(F)cc4)cn3c2C)CC1,–,"inconclusive: 0.82 µM [activator, full curve, poor fit]"
Cc1cccc(OCCn2nnc3ccccc32)c1C,–,"inconclusive: 6.51 µM [activator, single point]"
COC(=O)c1c(NC(NC(=O)c2ccccc2)(C(F)(F)F)C(F)(F)F)sc2c1CCN(C)C2,inconclusive: -7.72%,–
Cc1cc(=O)n2nc(N3CCCC3C(=O)Nc3ccccc3C)sc2n1 (stereo not drawn),inconclusive: 32.4%,–
O=C(CSc1nnnn1-c1ccc(O)cc1)N1N=C(c2ccc3ccccc3c2)CC1c1ccccc1 (stereo not drawn),–,"inconclusive: 8.2 µM [activator, partial curve]"
CCOC(=O)N1N=C(C)CC1(O)c1ccc(Cl)cc1 (stereo not drawn),inconclusive: -2.63%,–
C=CCOc1ccc(C2C(C(=O)c3ccco3)=C(O)C(=O)N2Cc2cccnc2)cc1 (stereo not drawn),inconclusive: 5.91%,–
